The target in this series is HUβ (Escherichia coli BL21(DE3)) (UniProt P0ACF4). Kind of series: EMSA. The settings on record: homodimer; nick in bottom strand; 30 mM Tris pH 7.5, 100 mM NaCl, 0.02% Tween20, 0.5 mg/ml BSA; 30-bp DNA 1 µM, 18°C 10 min, 10% PAGE in TBE; long DNA 250 ng in 15 µL, 37°C 1 h, 0.5% agarose in TAE; recombinant protein; residues 1-90; protein details: C-terminal 6xHis.

Amino acid sequences for entries named in this document (tags omitted). A change or cut given only in a name is not applied to a line headed by its entry.
UniProt P0ACF4: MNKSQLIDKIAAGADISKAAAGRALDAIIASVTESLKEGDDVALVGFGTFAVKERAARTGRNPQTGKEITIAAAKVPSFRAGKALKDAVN

The exact form of at least one protein or probe is not confirmed. At least one verdict was read from the data and is not stated in words by the source.

The text below walks through data of publication PMC8854993, “Acetylation at Lysine 86 of Escherichia coli HUβ Modulates the DNA-Binding Capability of the Protein” (Frontiers in Microbiology, 2021).

For the sequence “CCAACTTCCCTAACCCAGCTGCGATCCGTA / TACGGATCGCAGC / TGGGTTAGGGAAGTTGG [30-bp duplex with nick]”, the binding result is recorded as “binds”.
